The campaign covered roughly 31,000 sequences. About 1,400 (4.5%) were called active.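 How the source made its calls: active means median seed-adjusted z-score above 1 or below -1; inactive means the rest.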 Some of the results follow.
Experiment: Novel Modifiers of Survival Motor Neuron (SMN) Protein: Gene Identification via Genome-wide siRNA Screen;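 further: luminescence tracks full-length SMN protein made from the SMN2 reporter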
Details: HEK293T SMN2-luciferase reporter, siRNA knockdown, 72 h; actives lie on both sides
Procedure, shortened: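 Luciferase signal, proportional to full-length SMN made from an SMN2 cDNA reporter in stable HEK293T cells, was read 72 h after siRNA reverse transfection. Values were expressed as MAD scores after non-targeting-control normalization and log10 conversion; seed analysis flagged off-targets.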

| Sequence | median seed-adjusted z-score |
| --- | --- |
| GCAGUAUCGAGCUUCCGAATT against ACAD10 | inactive: -0.269 |
| GAGAGCACCUUAUAAGACATT against IARS2 | inactive: -0.404 |
| GCAUUCGGGUGGUUGAUAATT against RAPGEF1 | inactive: 0.304 |
| GAAGGAACGCGAACCCGUATT against SARM1 | inactive: 0.343 |
| GGCACAUCAAGAUCGCUGATT against CAMKK2 | inactive: -0.121 |
| CCUCGGUGCUUACAACAGATT against SLC22A4 | inactive: -0.474 |
| CCUGAUUGUUGGGAACCGATT against KLHL1 | inactive: 0.067 |
| GCCUACCAGAACCCACAGATT against TBX6 | inactive: 0.144 |
| GAAAUCGACGUGGUAAUUATT against DERA | inactive: -0.197 |
| GAAACGAGGAGUACAAUAATT against ORM1 | inactive: 0.206 |
| GCCUAUAUUCCAUCAGUUUTT against PTPLB | inactive: 0.0451 |
| GAGUUAUACGAUCCAUGUATT against TXNL4A | inactive: -0.42 |
| CUCCAUUCCUGGUAUAGAATT against XRCC5 | active: -1.11 |
| CCGGCGAUGUUAAUGUCAATT against ALG11 | inactive: 0.183 |
| CCUGUAGACAGCAUCAAAATT against METTL2B | inactive: 0.769 |
| CCACCUUGGAUGUUACCAATT against EIF2S3 | inactive: -0.0572 |
| GUCUAAAGGCCUCUGGAUATT against WNT6 | inactive: 0.027 |
| UCGUCUACCUGGAGAUUGATT against NOTCH1 | inactive: 0.116 |
| GCUACACACCCUACACGAATT against OSGIN1 | inactive: -0.131 |
| GGUCUCCACAAGUAUCUGATT against PDLIM3 | inactive: -0.297 |
| CAGACUUUGUGAUAAGGCUTT against GPRC5A | inactive: -0.56 |
| GCAACUGGAAGGAACGGAUTT against FXYD5 | inactive: -0.0885 |
| CUCUUAUCCUGGGAAAUUATT against ASCL3 | inactive: 0.0929 |

| Sequence | median seed-adjusted z-score |
| --- | --- |
| GGCUAUUGCUUGAAGAGUATT against LGTN | inactive: 0.491 |
| CAGUCAGAGUAGGAAAUAATT against ANAPC10 | inactive: 0.946 |
| GGUUGAUUGCCUUACGUGATT against SMC5 | inactive: 0.0666 |
| GCAUGGUGAAUUACUGUGATT against TRIM16 | inactive: 0.345 |
| GUAAGAACGAGAUCCUGGATT against KRT82 | inactive: 0.129 |
| GGAUGAUCACUACAUGAUUTT against OBSCN | inactive: -0.798 |
| GGGAUGCAAUACUUCAGUUTT against MCART1 | inactive: -0.605 |
| GCACGUAUGACAAAGCGAUTT against PTPRJ | inactive: 0.0522 |
| CAGCUUAAAUGGUUGUAGATT against PAPOLG | inactive: 0.0674 |
| GUACGUAUGCAACCGAUUATT against SLC1A4 | inactive: 0.209 |
| UAUUUUCCCUGAGCCUAUATT against SFTPA2B | inactive: -0.016 |
| CAACCUCCCUACCACCUGATT against UBE2L6 | inactive: -0.455 |
| GAUCUGUGGUUGCAAACGATT against TRMT1 | inactive: -0.224 |
| CCACGAAGAAGAGAUCAUATT against PRIM2 | inactive: -0.0161 |
| ACAUUGAUUUCAUGGAGUATT against GUCA1A | inactive: 0.101 |
| CUUUAACGGUGAAUAUGCATT against PSPH | inactive: -0.518 |
| GAUCGGCACUUACACCUGUTT against OPHN1 | inactive: 0.692 |
| GGAGGAGGUUAAGAACUCATT against CAMKK1 | inactive: 0 |
| GAAGCAUUGCUUACGCUGATT against PKP2 | inactive: -0.0809 |
| GGUUCCAUCUGGAUAUGGATT against SEC24B | inactive: -0.493 |
| CCUUACCUGUAAACAGAGATT against ESR2 | active: -1.1 |
| UCUUCUUGAUGGAUCUGAATT against PON3 | inactive: -0.0823 |
| CAACUACAGCUGCUAUACATT against RBMS1 | inactive: 0.798 |

| Sequence | median seed-adjusted z-score |
| --- | --- |
| GCACAGGCAUCAUCGGGAATT against SGSH | inactive: 0.383 |
| CCGUCAUCCUGAUUGAUGATT against FUT11 | inactive: -0.15 |
| GCGCACAACGGAAACAAUATT against MEX3B | inactive: -0.0576 |
| CCACAGUACUCCAAUCCGATT against SATB2 | inactive: -0.389 |
| GGGAUAUCAGUGUAUGUCATT against ABCC12 | inactive: 0.204 |
| GUGCUAUGUUGGAAACCAATT against FZD4 | inactive: 0.0695 |
| GUGUCGUACUCACAUCCAUTT against PTCH2 | inactive: -0.191 |
| ACAAUCCUGUACAAACUGATT against ARF5 | inactive: -0.507 |
| GCAUUCUGCCCUAUUCAUUTT against RHEBL1 | inactive: -0.268 |
| CUUGUGUUCUGAGAAUACATT against KRT83 | active: 1.15 |
| UCUCUGAAGUCAAACCCAATT against MCM7 | inactive: 0.0993 |
| AGCUGAGUGUGGUUGAUUUTT against CD8B | inactive: 0.174 |
| GGCUCUGACUACAAACUGATT against AP3S2 | inactive: 0.521 |
| GGUCUUCGCUAGCAUCUCATT against CLN3 | inactive: 0.105 |
| CAGUCGUCGGUUCCACAUATT against EREG | inactive: 0.29 |
| AGUCUGUCCGAGUACUUCATT against LFNG | inactive: -0.13 |
| GAGGCGCACUACAAAGGUATT against ZNF385A | inactive: -0.968 |
| GGAAACUCGUGGACUAUGATT against BIN2 | inactive: 0.205 |
| UACCGUCCCUCUUCAGUAATT against CASP7 | inactive: 0.213 |
| CAGAGUAUGUAAAUAGACATT against CAPRIN1 | active: 1.36 |
| GGAAUAUUGGUGAACGAUATT against ZCCHC8 | inactive: 0.356 |
| GGUACUCCAGAGUAUAACATT against CMYA5 | inactive: -0.858 |
